Reference: PubChem BioAssay AID2685 (National Center for Advancing Translational Sciences (NCATS), 2010)
The other results are listed elsewhere or left out. Shown are side measurements of this screen, not its main read-out; they come without a call. Compounds called inactive in the main read-out are mostly missing here. Words in brackets tell the shape of the fitted curve; partial curves, single points and poor fits give uncertain potencies.

Assay: qHTS Assay for Lipid Storage Modulators in Drosophila S3 Cells;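 for cell number change: cells counted by Cell Tracker Red CMTPX staining in the red channel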
Details: BODIPY lipid droplet fluorescence, 18-24 h; for cell number change: measured here: cell count max response, cells fed with added oleic acid
Procedure, shortened: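 Drosophila S3 cells got compounds at several concentrations plus oleic acid (400 uM solution). Laser-scanning cytometry with 488 nm excitation read lipid droplets at 500-530 nm and cells at 575-640 nm. Percent activity was relative to 20 uM Triacsin C.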

[1] = measured here: cell number channel AC50, cells fed with added oleic acid
[2] = measured here: lipid fluorescence (Fed channel) AC50, cells fed with added oleic acid

Compound	cell number change [%]	AC50 [1]	AC50 [2]
CCOc1ccc(CN(C)CC(=O)Nc2cccc3ccccc23)cc1OC	-14.3	0.82 µM [falling, full curve, poor fit]	0.259 µM [falling, full curve, poor fit]
CCc1cccc(C)c1NC(=O)c1cccnc1	7.61		
CCC(C)(C)NC(=O)c1ccc(S(=O)(=O)N(C)c2ccccc2OC)cc1	5.23	1.64 µM [falling, partial curve]	0.731 µM [falling, full curve]
CCCCCCSc1ccc([C@H]2N[C@@](CC(C)C)(C(=O)OC)[C@H]3C(=O)N(C)C(=O)[C@@H]23)cc1	-57.6	18.4 µM [falling, partial curve]	0.00517 µM [falling, full curve, poor fit]
C=CCNc1nc(C(F)(F)F)nc2c1nnn2Cc1ccccc1Cl	16.8		
COc1ccc(CN(C)CC(=O)Nc2cccc(S(=O)(=O)N(C)c3ccccc3)c2)c(OC)c1	-6.59		2.59 µM [falling, partial curve, poor fit]
N/C(=N\OC(=O)COc1ccc(Cl)cc1)c1ccc(Cl)cc1	-12.7		
CCOC(=O)N[C@H](Cc1c[nH]c2ccccc12)C(=O)NC1CC1	2.46		29.1 µM [falling, single point]
O=C(Nc1ccc(S(=O)(=O)Nc2ccc(Cl)cc2)cc1)C1CCCO1 (stereo unspecified)	21.8		6.51 µM [rising, single point]
O=C(C1CCCN(S(=O)(=O)c2cccc3cccnc23)C1)N1CCc2ccccc21 (stereo unspecified)	-0.264		18.4 µM [rising, single point]
COc1ccc(NC(=O)C2=CC(c3ccc(OC)c(OC)c3)=NS(=O)(=O)N2C)cc1	18.4		0.517 µM [falling, single point]
COc1ccc(-c2cnc(SCCNC(=O)c3ccc4c(c3)OCO4)[nH]2)cc1			5.17 µM [rising, partial curve, poor fit]
COc1cccc(NC(=O)CN(C)C(=O)c2ccc(COc3ccccc3)o2)c1	-20	1.64 µM [falling, partial curve, poor fit]	1.84 µM [falling, single point]
Nc1c(C(=O)NC2CCCC2)c2nc3ccccc3nc2n1/N=C/c1ccco1	93.8	2.06 µM [rising, full curve]	3.26 µM [rising, partial curve]
O=C(Nc1ccccc1)c1ccc2c(c1)OCCO2	44.1	29.1 µM [rising, single point]	
CCc1ccccc1-n1c(SCC(=O)NC)nnc1-c1cccnc1	-29.6	0.206 µM [falling, full curve, poor fit]	
Cc1cccc(N(C(=O)CNC(=O)c2ccco2)C(C(=O)NC2CCCC2)c2ccncc2)c1C (stereo unspecified)	4.76		
Cc1ccc(C(=O)c2cc([N+](=O)[O-])ccc2N2CCCCC2)c(C)c1	-47.3	1.64 µM [falling, partial curve]	18.4 µM [rising, single point]
COc1ccc(N=Nc2ccc3ccccc3c2)c(O)c1			0.82 µM [falling, full curve]

As a working copy, 17 of the compounds above:
Compound	cell number change [%]	AC50 [1]	AC50 [2]
CCC(C)(C)NC(=O)c1ccc(S(=O)(=O)N(C)c2ccccc2OC)cc1	5.23	1.64 µM [falling, partial curve]	0.731 µM [falling, full curve]
CCCCCCSc1ccc([C@H]2N[C@@](CC(C)C)(C(=O)OC)[C@H]3C(=O)N(C)C(=O)[C@@H]23)cc1	-57.6	18.4 µM [falling, partial curve]	0.00517 µM [falling, full curve, poor fit]
C=CCNc1nc(C(F)(F)F)nc2c1nnn2Cc1ccccc1Cl	16.8		
COc1ccc(CN(C)CC(=O)Nc2cccc(S(=O)(=O)N(C)c3ccccc3)c2)c(OC)c1	-6.59		2.59 µM [falling, partial curve, poor fit]
N/C(=N\OC(=O)COc1ccc(Cl)cc1)c1ccc(Cl)cc1	-12.7		
CCOC(=O)N[C@H](Cc1c[nH]c2ccccc12)C(=O)NC1CC1	2.46		29.1 µM [falling, single point]
O=C(Nc1ccc(S(=O)(=O)Nc2ccc(Cl)cc2)cc1)C1CCCO1 (stereo unspecified)	21.8		6.51 µM [rising, single point]
O=C(C1CCCN(S(=O)(=O)c2cccc3cccnc23)C1)N1CCc2ccccc21 (stereo unspecified)	-0.264		18.4 µM [rising, single point]
COc1ccc(NC(=O)C2=CC(c3ccc(OC)c(OC)c3)=NS(=O)(=O)N2C)cc1	18.4		0.517 µM [falling, single point]
COc1ccc(-c2cnc(SCCNC(=O)c3ccc4c(c3)OCO4)[nH]2)cc1			5.17 µM [rising, partial curve, poor fit]
COc1cccc(NC(=O)CN(C)C(=O)c2ccc(COc3ccccc3)o2)c1	-20	1.64 µM [falling, partial curve, poor fit]	1.84 µM [falling, single point]
Nc1c(C(=O)NC2CCCC2)c2nc3ccccc3nc2n1/N=C/c1ccco1	93.8	2.06 µM [rising, full curve]	3.26 µM [rising, partial curve]
O=C(Nc1ccccc1)c1ccc2c(c1)OCCO2	44.1	29.1 µM [rising, single point]	
CCc1ccccc1-n1c(SCC(=O)NC)nnc1-c1cccnc1	-29.6	0.206 µM [falling, full curve, poor fit]	
Cc1cccc(N(C(=O)CNC(=O)c2ccco2)C(C(=O)NC2CCCC2)c2ccncc2)c1C (stereo unspecified)	4.76		
Cc1ccc(C(=O)c2cc([N+](=O)[O-])ccc2N2CCCCC2)c(C)c1	-47.3	1.64 µM [falling, partial curve]	18.4 µM [rising, single point]
COc1ccc(N=Nc2ccc3ccccc3c2)c(O)c1			0.82 µM [falling, full curve]

Next structures:

Compound	cell number change [%]	AC50 [1]	AC50 [2]
CC1CCN(C(=O)CSc2ccc(-c3ccc(F)cc3)nn2)CC1	-10.7		0.82 µM [rising, single point]
Cc1ccnc(NC(=O)CNC(=O)C23CC4CC(CC(C4)C2)C3)c1	-61.2	23.1 µM [falling, partial curve, poor fit]	0.146 µM [falling, full curve, poor fit]
COC(=O)c1sccc1NC(=O)Nc1cc(OC)ccc1OC	19	2.06 µM [rising, partial curve]	25.9 µM [rising, single point]
COc1cc(OC)cc(-c2c(-c3cccs3)c3cc(-c4ccc5c(c4)OCCO5)ccc3n2C)c1	-11.4		
CCc1ccc(CNc2ccc3c(c2)ncn3C)cc1	-19.7		18.4 µM [falling, single point]
N#Cc1ccccc1NC(=O)COC(=O)CCc1ccc(S(=O)(=O)N2CCCCC2)cc1	-11.7		0.146 µM [falling, full curve, poor fit]
Nc1ncccc1OCc1cccc(C(F)(F)F)c1	-27.3		29.1 µM [falling, single point]
Cc1ccc(C(=O)NNC(=O)c2ccccc2-n2cccc2)cc1	-39.4		
O=C(C1=C[C@@H](c2ccc3c(c2)OCO3)C[C@@H](OCCCCO)O1)N1CCOCC1	29.3		0.0651 µM [rising, full curve, poor fit]
NC(=O)Nc1n[nH]c(-c2ccccc2)n1	11		18.4 µM [rising, single point]
CCN=C1S/C(=C\c2ccc(-c3cccc(C(=O)O)c3)o2)C(=O)N1CC	-3.84		4.61 µM [falling, full curve, poor fit]
COc1ccc([N+](=O)[O-])cc1NCC(=O)Nc1cc(S(=O)(=O)N2CCCCC2)ccc1C			0.00461 µM [falling, full curve, poor fit]
NC(=O)c1ccc(SCC(=O)NC2CCCCC2)c([N+](=O)[O-])c1	-12.1		
CCCNC(=O)COC(=O)c1cccnc1Nc1ccccc1F	8.14		29.1 µM [rising, single point]
Cc1ccccc1CCNC(=O)C1CCN(S(=O)(=O)c2ccc(-n3cnnn3)cc2)CC1	28.4		29.1 µM [rising, single point]
COC(=O)c1cc(C(=O)OC)n(Cc2ccc(F)cc2)n1		2.91 µM [rising, single point]	
COc1ccc(C2/C(=C(\O)c3ccc4c(c3)OCCO4)C(=O)C(=O)N2Cc2cccnc2)cc1OC (stereo unspecified)	7.55		29.1 µM [rising, single point]
COc1ccc(C(=O)NC2CCN(C(=S)Nc3cc(C)cc(C)c3)CC2)cc1	13.4	3.26 µM [falling, single point]	6.51 µM [falling, single point]
COc1ccc(/C=N/n2cncn2)cc1Cn1nc(C)c([N+](=O)[O-])c1C	-8		0.164 µM [rising, partial curve, poor fit]

Compound	cell number change [%]	AC50 [1]	AC50 [2]
CCN(CC)S(=O)(=O)c1cccc(C(=O)N2CC(O)CC2C(=O)OC)c1 (stereo unspecified)	5.81		0.0731 µM [falling, full curve, poor fit]
CCOC(=O)c1c(-c2ccc(C)o2)csc1N	8.3	4.11 µM [rising, single point]	
Cc1cc(C)cc(NC(=O)CCn2ccnc2C)c1	-21.4	0.146 µM [falling, full curve, poor fit]	3.26 µM [falling, full curve]
CC(C)c1ccc2c(c1)C1(NN=C(c3ccccc3)S1)C(=O)N2 (stereo unspecified)	-79	13 µM [falling, partial curve]	14.6 µM [falling, partial curve]
CC1=C(C(=O)NCc2ccccc2)C(c2ccc(C)o2)n2ncnc2N1 (stereo unspecified)	23.2		0.731 µM [rising, single point]
COc1ccc2[nH]c(=O)c(CN(Cc3ccccc3)Cc3nnnn3CC3CCCO3)cc2c1 (stereo unspecified)	9.01	6.51 µM [rising, single point]	0.13 µM [rising, full curve, poor fit]
Cn1c(=NC(=O)c2ccco2)sc2cccc(F)c21	7.27		
CCOC(=O)c1c(C)c(C(=O)N2CCN(c3cccc(Cl)c3)CC2)c(C)n1C	-20.8		32.6 µM [rising, single point]
CCOc1ccc(C(=O)NCC(=O)OCC(=O)NC2CCCC2)cc1	-9.86	0.103 µM [falling, full curve, poor fit]	0.731 µM [rising, partial curve, poor fit]
CCSc1ccc([C@@H]2[C@H]3C(=O)N(CC)C(=O)[C@H]3[C@]3(C(=O)OC)CCCCN23)cc1	20.2		0.651 µM [rising, full curve, poor fit]
N#C/C(=C\Nc1ccc2cn[nH]c2c1)c1nc(-c2ccccc2)cs1	-65.3	29.1 µM [falling, single point]	29.1 µM [falling, single point]
CC(C)(C)c1ccc(C(=O)Nc2cccnc2)cc1	7.77		6.51 µM [falling, single point]
CN(Cc1ccccc1)C(=O)CCn1c(=O)oc2ccccc21	-1.22	6.51 µM [falling, single point]	0.0206 µM [falling, full curve, poor fit]
CCCCNC(=O)CC(=O)Nc1ccccc1C(=O)O			23.1 µM [rising, partial curve]
CC(=O)Nc1cccc(C(=O)OCN2C(=O)c3ccccc3C2=O)c1	-13.3		0.58 µM [rising, single point]
CC(NC(=O)c1cc(-c2ccc(Br)cc2)on1)c1ccccc1 (stereo unspecified)	36.9	2.59 µM [rising, partial curve, poor fit]	0.0231 µM [rising, full curve]
COc1ccccc1C(=O)NNC(=O)C(=O)Nc1ccc(C)c(Cl)c1	44.4	18.4 µM [rising, single point]	29.1 µM [rising, single point]
O=C(c1ccccc1)c1nn(-c2ccc(Cl)cc2)cc1C(=O)c1cc2ccccc2oc1=O		0.259 µM [rising, full curve]	2.59 µM [rising, partial curve]
